Assay results published in article PMC10329019, “Membrane translocation process revealed by in situ structures of type II secretion system secretins” (Nature Communications, 2023).
No constants are given. Whether binding was seen depends on the method and setting. A result given as binding can be weak or reduced; the word gives no strength. Tags and fused reporters may be left off the sequences shown.

How the values were obtained:
[1] = molecular target: T1, GspDβ secretin (ETEC H10407 strain) with hexahistidine tag, from pETDuet-gspDβ-his-gspS, co-expressed with GspS (Enterotoxigenic E. coli (ETEC) H10407 strain) (UniProt E3PJ86); assay: cryo-EM structure; in situ cryo-ET subtomogram averaging of particles on the outer membrane of E. coli minicells overexpressing GspDβ and GspS; 514 particles, C15 symmetry, 19 Å; C5 refinement as a test of symmetry
T1 sequence: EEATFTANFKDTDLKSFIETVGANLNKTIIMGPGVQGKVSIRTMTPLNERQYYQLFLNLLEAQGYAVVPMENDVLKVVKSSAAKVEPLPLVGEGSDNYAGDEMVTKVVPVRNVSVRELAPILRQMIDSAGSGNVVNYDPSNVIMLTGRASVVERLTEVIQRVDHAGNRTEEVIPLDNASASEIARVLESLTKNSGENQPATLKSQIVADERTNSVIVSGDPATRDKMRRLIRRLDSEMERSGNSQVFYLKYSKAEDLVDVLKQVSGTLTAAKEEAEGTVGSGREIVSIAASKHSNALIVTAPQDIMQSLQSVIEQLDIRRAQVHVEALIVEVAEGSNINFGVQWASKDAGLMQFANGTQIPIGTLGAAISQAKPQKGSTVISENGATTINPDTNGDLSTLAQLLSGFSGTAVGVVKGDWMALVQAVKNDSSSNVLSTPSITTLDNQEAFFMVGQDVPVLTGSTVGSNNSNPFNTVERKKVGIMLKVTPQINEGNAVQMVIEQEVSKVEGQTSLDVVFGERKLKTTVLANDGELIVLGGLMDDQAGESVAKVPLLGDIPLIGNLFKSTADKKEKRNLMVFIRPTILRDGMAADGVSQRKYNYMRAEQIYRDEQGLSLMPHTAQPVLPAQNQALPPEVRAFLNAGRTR

[2] = molecular target: T2, GspDβ secretin (ETEC H10407 strain) with C-terminal hexahistidine tag, from pETDuet-gspDβ-his, expressed alone (Enterotoxigenic E. coli (ETEC) H10407 strain) (UniProt E3PJ86); assay: cryo-EM structure; in situ cryo-ET subtomogram averaging of particles on the outer membrane of E. coli minicells overexpressing only GspDβ; 723 particles, C15 symmetry, 16 Å; C5 refinement as a test of symmetry
T2 sequence: T1 sequence

Substance	binding [1]	binding [2]
GspS pilotin (ETEC H10407 strain), no tag	binds	
endogenous GspS of the E. coli expression strain		binds
